Reference: patent US7244712B2, “Aminoglycoside antibiotics and methods of using same” (priority 2004, dated 2007)

Test system: 70S ribosome
Test: Fluorescence anisotropy binding to 70S ribosomes
Design: species or system E. coli
Protocol: After establishing the lack of stereospecificity in the binding of aminoglycosides to the A-site RNA constructs (FIG. 9A-C) where the binding affinity, KD, is about 0.1 μM to about 100 μM, the stereospecificity of aminoglycoside binding to intact ribosomes was determined. Both yeast and E. coli ribosomes were prepared and aminoglycoside binding was measured using fluorescence anisotropy methods. For example, fluorescence anisotropy methods recited in Wang, Y., and Rando, R. R. Chem. Biol. (1995) 2, 281-290; and Wang, Y., Hamasaki, K., and Rando, R. R. Biochemistry (1997) 36,768-779. CRP was used as the binding probe. […]
5-Carboxytetramethylrhodamine-labeled paromomycin (CRP) and tobramycin (CRT) concentrations were determined spectroscopically at 550 nm using a molar extinction coefficient of 6.00×10 4 M −1 cm −1. Fluorescence anisotropy measurements were performed on a Perkin-Elmer LS-50B luminescence spectrometer equipped with a thermostat accurate to ±0.1° C. as indicated previously (Wang, Y., Hamasaki, K., & Rando, R. R. (1997) Biochemistry 36, 768-779). The tracer solution was excited at 550 nm and monitored at 580 nm. […]
Equation 2 is used for the calculation of the KD values in the competition binding assay. […] Both Kd and KD were determined by non-linear curve fitting using the equations described above, and are presented as mean values of three independent measurements. […]

Structure (SMILES) | Preference for bacterial ribosome over eukaryotic, yeast ribosome (70S versus 80S) | Affinity for E. coli ribosomes relative to D-neamine
NCC1OC(OC2C(N)CC(N)C(O)C2O)C(N)C(O)C1O (single isomer, unassigned) [4-Isomer of L-Neamine (ent-3), 4-isomer of L-Neamine] | fivefold | 
NCC1OC(OC2C(N)CC(N)C(O)C2O)C(N)C(O)C1O [L-Neamine] |  | two-fold greater affinity; also recorded: approximately two-fold higher affinity

Entries after “also recorded” stand apart in the source; their conditions may differ.
